Measurements published in the supplement of paper PMC10849652.
The list shows a part of the results.

Chains of the proteins cited; added tags and fusions are not shown. Lines headed by an entry give the natural chain unless they say otherwise; changes in a name come on top.
UniProt Q9H7F0: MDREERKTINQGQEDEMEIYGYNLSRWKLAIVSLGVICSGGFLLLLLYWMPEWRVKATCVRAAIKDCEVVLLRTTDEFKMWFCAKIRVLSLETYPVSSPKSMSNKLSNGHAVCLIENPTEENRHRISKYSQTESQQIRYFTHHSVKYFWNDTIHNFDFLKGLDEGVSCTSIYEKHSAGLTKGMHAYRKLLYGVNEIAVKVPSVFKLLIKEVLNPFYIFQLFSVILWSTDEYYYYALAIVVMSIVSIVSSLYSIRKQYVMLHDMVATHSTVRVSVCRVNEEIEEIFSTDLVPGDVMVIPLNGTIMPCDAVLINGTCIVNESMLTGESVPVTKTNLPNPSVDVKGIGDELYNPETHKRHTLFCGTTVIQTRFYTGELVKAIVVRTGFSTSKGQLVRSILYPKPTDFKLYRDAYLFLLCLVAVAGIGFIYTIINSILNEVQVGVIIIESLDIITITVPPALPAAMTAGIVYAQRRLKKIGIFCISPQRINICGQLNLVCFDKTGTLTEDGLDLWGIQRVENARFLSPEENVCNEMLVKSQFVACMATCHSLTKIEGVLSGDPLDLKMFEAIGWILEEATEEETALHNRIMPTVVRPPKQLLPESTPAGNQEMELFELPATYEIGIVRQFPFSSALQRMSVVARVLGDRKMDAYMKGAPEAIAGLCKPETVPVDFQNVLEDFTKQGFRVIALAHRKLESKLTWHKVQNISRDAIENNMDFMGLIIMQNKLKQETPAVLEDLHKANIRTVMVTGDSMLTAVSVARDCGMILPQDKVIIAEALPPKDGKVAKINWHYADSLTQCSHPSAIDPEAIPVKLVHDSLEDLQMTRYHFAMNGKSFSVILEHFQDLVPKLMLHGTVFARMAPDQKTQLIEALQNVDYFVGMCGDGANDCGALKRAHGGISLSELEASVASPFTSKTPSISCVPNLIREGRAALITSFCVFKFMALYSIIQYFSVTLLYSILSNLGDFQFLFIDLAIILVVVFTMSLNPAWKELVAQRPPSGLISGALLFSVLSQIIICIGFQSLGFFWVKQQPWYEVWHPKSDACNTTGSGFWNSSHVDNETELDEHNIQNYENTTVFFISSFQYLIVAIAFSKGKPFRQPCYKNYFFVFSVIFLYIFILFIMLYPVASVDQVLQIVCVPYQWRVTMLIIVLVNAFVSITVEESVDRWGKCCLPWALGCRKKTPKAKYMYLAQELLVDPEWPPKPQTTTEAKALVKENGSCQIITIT
UniProt Q9BZE9, whole entry, looked up: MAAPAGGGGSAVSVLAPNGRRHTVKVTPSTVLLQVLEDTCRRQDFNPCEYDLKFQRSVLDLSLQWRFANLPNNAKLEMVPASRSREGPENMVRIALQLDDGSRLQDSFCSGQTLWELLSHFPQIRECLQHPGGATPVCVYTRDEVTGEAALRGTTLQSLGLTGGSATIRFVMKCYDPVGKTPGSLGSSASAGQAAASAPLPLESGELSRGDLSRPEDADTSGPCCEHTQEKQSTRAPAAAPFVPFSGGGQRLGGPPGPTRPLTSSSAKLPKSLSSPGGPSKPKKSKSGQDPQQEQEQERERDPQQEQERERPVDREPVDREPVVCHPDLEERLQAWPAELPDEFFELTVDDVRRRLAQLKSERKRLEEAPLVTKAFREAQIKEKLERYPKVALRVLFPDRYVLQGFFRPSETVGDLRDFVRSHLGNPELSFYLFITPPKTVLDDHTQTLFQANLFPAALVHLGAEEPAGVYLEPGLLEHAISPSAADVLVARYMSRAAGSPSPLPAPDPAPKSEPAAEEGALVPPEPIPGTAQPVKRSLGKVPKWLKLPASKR
UniProt Q15904, whole entry, looked up: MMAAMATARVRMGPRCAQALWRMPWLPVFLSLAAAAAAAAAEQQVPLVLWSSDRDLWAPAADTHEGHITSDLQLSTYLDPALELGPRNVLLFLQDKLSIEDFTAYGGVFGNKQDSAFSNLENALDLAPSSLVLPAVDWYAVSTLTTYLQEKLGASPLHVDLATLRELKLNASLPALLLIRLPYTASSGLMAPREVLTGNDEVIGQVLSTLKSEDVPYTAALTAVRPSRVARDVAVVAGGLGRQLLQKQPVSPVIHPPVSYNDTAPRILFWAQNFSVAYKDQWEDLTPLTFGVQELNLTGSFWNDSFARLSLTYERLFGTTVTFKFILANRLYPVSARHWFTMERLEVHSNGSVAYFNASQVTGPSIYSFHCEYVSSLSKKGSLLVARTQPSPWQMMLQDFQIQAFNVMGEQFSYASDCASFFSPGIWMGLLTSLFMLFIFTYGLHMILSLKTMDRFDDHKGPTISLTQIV
UniProt Q9Y679: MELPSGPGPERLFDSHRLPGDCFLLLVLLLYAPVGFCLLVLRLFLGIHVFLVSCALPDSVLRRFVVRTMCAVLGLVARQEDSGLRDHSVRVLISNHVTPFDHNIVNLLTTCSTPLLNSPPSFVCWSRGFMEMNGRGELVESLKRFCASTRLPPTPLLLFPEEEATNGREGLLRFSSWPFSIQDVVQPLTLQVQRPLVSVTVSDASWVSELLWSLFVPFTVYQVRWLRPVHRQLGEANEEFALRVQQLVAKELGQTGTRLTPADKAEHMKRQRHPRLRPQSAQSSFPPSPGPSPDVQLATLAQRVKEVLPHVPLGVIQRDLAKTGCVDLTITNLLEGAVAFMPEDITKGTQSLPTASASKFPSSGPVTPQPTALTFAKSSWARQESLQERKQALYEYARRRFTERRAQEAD
UniProt Q5U623: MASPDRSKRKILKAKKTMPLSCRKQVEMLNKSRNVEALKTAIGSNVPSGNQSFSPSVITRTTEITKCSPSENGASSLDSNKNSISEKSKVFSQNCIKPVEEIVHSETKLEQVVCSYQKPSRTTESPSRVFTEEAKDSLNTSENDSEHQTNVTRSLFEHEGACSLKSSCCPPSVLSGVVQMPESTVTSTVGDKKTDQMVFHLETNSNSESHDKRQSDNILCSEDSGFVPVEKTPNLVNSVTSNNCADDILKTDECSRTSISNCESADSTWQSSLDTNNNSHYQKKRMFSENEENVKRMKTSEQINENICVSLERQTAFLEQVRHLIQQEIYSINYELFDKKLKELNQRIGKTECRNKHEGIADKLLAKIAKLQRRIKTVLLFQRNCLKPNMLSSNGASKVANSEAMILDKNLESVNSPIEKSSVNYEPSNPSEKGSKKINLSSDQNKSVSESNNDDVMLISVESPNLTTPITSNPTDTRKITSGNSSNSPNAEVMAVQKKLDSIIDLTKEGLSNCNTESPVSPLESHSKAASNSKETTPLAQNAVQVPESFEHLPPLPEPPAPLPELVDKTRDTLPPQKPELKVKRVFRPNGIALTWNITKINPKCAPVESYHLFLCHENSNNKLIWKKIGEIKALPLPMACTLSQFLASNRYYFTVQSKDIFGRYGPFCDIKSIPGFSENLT
UniProt Q9NQS1: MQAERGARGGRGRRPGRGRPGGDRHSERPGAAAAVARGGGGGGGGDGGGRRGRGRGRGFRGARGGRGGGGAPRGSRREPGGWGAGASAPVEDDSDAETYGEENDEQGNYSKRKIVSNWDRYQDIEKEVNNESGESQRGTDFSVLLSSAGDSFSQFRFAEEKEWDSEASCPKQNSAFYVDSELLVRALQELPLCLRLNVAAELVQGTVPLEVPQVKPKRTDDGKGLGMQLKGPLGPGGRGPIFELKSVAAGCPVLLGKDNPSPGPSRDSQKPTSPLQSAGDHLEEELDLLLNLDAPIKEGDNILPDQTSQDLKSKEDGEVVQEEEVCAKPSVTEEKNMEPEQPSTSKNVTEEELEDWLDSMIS
UniProt Q7L266: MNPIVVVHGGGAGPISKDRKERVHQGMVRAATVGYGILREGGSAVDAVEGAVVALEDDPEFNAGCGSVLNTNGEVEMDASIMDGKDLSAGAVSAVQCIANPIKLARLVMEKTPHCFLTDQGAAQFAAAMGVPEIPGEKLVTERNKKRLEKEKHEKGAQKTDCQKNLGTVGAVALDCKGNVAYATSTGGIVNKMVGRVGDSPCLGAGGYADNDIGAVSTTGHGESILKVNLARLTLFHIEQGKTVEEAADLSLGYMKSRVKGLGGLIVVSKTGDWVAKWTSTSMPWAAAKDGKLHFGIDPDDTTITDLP
UniProt Q5T9A4: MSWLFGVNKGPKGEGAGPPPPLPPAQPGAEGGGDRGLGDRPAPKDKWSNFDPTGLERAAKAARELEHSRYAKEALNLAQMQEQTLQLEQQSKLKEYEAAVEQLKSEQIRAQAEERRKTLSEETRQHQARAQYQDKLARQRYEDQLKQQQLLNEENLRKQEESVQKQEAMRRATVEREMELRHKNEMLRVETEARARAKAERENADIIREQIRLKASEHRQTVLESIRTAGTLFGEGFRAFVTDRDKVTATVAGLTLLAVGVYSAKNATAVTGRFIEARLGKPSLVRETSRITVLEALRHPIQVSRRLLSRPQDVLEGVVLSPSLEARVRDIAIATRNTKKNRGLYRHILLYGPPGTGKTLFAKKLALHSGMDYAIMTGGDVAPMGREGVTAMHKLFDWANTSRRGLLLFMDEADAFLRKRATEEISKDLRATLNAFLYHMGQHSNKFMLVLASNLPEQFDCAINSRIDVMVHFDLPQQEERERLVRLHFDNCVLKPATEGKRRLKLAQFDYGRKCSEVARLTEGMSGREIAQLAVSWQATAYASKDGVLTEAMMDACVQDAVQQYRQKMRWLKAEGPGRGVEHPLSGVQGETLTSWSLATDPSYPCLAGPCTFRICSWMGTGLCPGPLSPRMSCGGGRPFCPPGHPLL
UniProt P18847: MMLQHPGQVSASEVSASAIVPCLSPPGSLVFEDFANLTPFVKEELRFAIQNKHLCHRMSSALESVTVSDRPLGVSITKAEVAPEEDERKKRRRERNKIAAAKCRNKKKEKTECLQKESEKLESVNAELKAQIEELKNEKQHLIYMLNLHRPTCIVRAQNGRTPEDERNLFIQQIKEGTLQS
UniProt P27449, whole entry, looked up: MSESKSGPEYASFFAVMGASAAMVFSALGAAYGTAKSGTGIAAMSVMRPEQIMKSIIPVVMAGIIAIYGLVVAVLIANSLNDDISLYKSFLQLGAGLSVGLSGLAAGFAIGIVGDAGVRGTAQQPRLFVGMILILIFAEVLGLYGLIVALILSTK
UniProt O75882: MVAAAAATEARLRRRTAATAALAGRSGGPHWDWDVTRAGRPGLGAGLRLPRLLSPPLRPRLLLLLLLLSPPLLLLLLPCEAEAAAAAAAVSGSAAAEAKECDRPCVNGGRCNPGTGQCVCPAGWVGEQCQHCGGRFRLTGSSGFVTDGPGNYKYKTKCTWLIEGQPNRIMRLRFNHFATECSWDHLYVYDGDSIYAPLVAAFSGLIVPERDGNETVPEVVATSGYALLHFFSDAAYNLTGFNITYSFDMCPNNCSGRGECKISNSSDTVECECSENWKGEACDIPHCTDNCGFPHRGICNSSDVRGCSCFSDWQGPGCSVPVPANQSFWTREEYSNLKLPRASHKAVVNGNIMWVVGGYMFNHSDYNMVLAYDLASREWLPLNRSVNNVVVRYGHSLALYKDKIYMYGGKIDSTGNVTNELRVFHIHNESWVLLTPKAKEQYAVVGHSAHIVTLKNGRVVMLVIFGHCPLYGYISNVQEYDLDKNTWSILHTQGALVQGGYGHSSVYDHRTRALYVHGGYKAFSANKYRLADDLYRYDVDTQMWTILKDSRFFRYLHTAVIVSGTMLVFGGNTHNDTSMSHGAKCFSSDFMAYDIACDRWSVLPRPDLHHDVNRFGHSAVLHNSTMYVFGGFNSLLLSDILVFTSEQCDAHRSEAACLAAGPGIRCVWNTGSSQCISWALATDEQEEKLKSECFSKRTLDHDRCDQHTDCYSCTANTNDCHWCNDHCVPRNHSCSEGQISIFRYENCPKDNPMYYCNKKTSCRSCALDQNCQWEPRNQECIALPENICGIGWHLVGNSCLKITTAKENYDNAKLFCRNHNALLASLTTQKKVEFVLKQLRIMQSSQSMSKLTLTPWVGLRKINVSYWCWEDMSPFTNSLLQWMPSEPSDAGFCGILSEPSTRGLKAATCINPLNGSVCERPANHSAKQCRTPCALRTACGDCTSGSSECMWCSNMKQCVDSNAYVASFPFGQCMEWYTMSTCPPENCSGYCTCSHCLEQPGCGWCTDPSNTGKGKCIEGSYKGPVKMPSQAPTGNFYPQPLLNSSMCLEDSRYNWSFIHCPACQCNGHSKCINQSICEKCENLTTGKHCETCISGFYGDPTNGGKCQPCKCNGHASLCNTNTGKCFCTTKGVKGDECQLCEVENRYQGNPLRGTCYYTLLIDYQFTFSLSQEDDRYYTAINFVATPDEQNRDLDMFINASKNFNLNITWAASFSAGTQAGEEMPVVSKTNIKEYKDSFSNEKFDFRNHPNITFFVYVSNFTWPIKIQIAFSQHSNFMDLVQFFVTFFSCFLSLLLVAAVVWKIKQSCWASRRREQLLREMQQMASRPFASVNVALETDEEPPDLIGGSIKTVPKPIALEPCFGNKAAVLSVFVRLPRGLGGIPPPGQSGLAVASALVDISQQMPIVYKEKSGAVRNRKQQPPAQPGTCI
UniProt Q96GX2: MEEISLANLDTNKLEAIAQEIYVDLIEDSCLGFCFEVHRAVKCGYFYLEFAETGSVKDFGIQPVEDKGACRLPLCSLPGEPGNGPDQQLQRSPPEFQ

What was measured:
Test in all cases: log2 fold change, soluble protein after heating vs DMSO (PISA); higher = thermal stabilisation; K562 lysate, 10 uM; active = over 0.2 and 3.5 SD of the protein, either way, in both replicates (recomputed)
alvocidib = compound: CN1CC[C@H](c2c(O)cc(O)c3c(=O)cc(-c4ccccc4Cl)oc23)[C@H](O)C1 [alvocidib]
Method in brief: (§1)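 A 30 min treatment with 10 μM compound was applied to crude K562 extract at 1 mg/mL protein in PBS pH 7.4 with 1 mM MgCl2. Heating for 3 min spanned 48°C-58°C, after which aliquots were pooled, adjusted to 0.5% NP-40 at 4°C and spun at 21,000xg for 90 min. TMTpro 16plex LC-MS/MS of the supernatant, with channel sums equalised, gave values recorded as log-two fold change in thermal stability against solvent controls, from duplicates.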

Tubastatin A = compound: CN1CCc2c(c3ccccc3n2Cc2ccc(C(=O)NO)cc2)C1 [Tubastatin A]
Method in brief: as §1

[1] = compound: CNC(=O)C1=CC=CC=C1NC2=NC(=NC=C2Cl)NC3=C(C=C(C=C3)N4CCOCC4)OC
Method in brief: as §1

defactinib = compound: CNC(=O)c1ccc(Nc2ncc(C(F)(F)F)c(NCc3nccnc3N(C)S(C)(=O)=O)n2)cc1 [defactinib]
Method in brief: as §1

[2] = compound: CNc1nc(-c2ccc3c(N)n[nH]c3c2)cc(N2C[C@@H](C(=O)NC3CCCCC3)CC[C@H]2C)n1
Method in brief: as §1

encorafenib = compound: COC(=O)N[C@@H](C)CNc1nccc(-c2cn(C(C)C)nc2-c2cc(Cl)cc(NS(C)(=O)=O)c2F)n1 [encorafenib]
Method in brief: as §1

[3] = compound: COC(=O)[C@H](CCSC)NC(=O)C1=C(C=C(C=C1)NC[C@H](CS)N)C2=CC=CC=C2
Method in brief: as §1

alisertib = compound: COc1cc(Nc2ncc3c(n2)-c2ccc(Cl)cc2C(c2c(F)cccc2OC)=NC3)ccc1C(=O)O [alisertib]
Method in brief: as §1

[4] = compound: COc1cc2nc(-c3cc(F)ccc3O)nc(N[C@@H]3CNC[C@H]3C(C)(C)O)c2cc1OC
Method in brief: as §1

gefitinib = compound: COc1cc2ncnc(Nc3ccc(F)c(Cl)c3)c2cc1OCCCN1CCOCC1 [gefitinib]
Method in brief: as §1

Measured: log2 fold change

ATP13A3 (UniProt Q9H7F0)
inactive: alvocidib -0.035 | Tubastatin A 0.017 | [1] 0.016 | defactinib -0.089 | [2] 0.001 | encorafenib 0.062 | [3] -0.089 | alisertib 0.106 | [4] -0.093 | gefitinib -0.098

ATP6V0D1 (UniProt P61421)
inactive: alvocidib 0.013 | Tubastatin A 0.092 | [1] -0.004 | defactinib 0.113 | [2] -0.044 | encorafenib 0.017 | [3] -0.039 | alisertib 0.055 | [4] -0.041 | gefitinib -0.096

ATN1 (UniProt P54259)
inactive: alvocidib -0.039 | Tubastatin A 0.037 | [1] -0.075 | defactinib -0.024 | [2] 0.059 | encorafenib -0.005 | [3] 0.02 | alisertib -0.059 | [4] 0.042 | gefitinib 0.078

ATP6V0A2 (UniProt Q9Y487)
inactive: alvocidib -0.129 | Tubastatin A 0.091 | [1] 0.022 | defactinib 0.008 | [2] 0.001 | encorafenib 0.03 | [3] -0.027 | alisertib 0.015 | [4] 0.048 | gefitinib 0.036

ATP5PB (UniProt P24539)
inactive: alvocidib 0 | Tubastatin A 0.045 | [1] 0 | defactinib 0.014 | [2] 0.007 | encorafenib -0.007 | [3] -0.067 | alisertib -0.002 | [4] -0.012 | gefitinib 0.014

ATXN3 isoform 1 (UniProt P54252)
inactive: alvocidib -0.015 | Tubastatin A 0.019 | [1] -0.006 | defactinib 0.014 | [2] -0.029 | encorafenib 0.041 | [3] 0.009 | alisertib -0.033 | [4] -0.042 | gefitinib -0.013

AURKAIP1 (UniProt Q9NWT8)
inactive: alvocidib 0.026 | Tubastatin A 0.219 | [1] -0.02 | defactinib 0.083 | [2] 0.072 | encorafenib 0.077 | [3] -0.057 | alisertib 0.067 | [4] 0.098 | gefitinib -0.032

ASPSCR1 (UniProt Q9BZE9)
inactive: alvocidib -0.031 | Tubastatin A -0.023 | [1] 0.053 | defactinib 0.037 | [2] -0.019 | encorafenib -0.016 | [3] 0.001 | alisertib -0.017 | [4] -0.006 | gefitinib -0.037

Two successive records from above:
ATP6V0A2 (UniProt Q9Y487)
inactive: alvocidib -0.129 | Tubastatin A 0.091 | [1] 0.022 | defactinib 0.008 | [2] 0.001 | encorafenib 0.03 | [3] -0.027 | alisertib 0.015 | [4] 0.048 | gefitinib 0.036

ATP5PB (UniProt P24539)
inactive: alvocidib 0 | Tubastatin A 0.045 | [1] 0 | defactinib 0.014 | [2] 0.007 | encorafenib -0.007 | [3] -0.067 | alisertib -0.002 | [4] -0.012 | gefitinib 0.014

Remaining list, next part

ATP6AP1 (UniProt Q15904)
inactive: alvocidib -0.045 | Tubastatin A 0.073 | [1] 0.011 | defactinib -0.054 | [2] -0.032 | encorafenib 0.021 | [3] -0.09 | alisertib -0.016 | [4] 0.026 | gefitinib 0.064

AUP1 (UniProt Q9Y679)
inactive: alvocidib 0.033 | Tubastatin A 0.215 | [1] -0.003 | defactinib -0.011 | [2] 0 | encorafenib 0.032 | [3] -0.109 | alisertib 0.017 | [4] -0.001 | gefitinib -0.033

ATF7IP2 (UniProt Q5U623)
inactive: alvocidib -0.197 | Tubastatin A 0.071 | [1] -0.065 | defactinib -0.072 | alisertib 0.003 | [4] 0.064 | gefitinib 0.044

ASMTL (UniProt O95671)
inactive: alvocidib -0.03 | Tubastatin A -0.118 | [1] 0.011 | defactinib -0.011 | [2] -0.022 | encorafenib -0.006 | [3] 0.116 | alisertib 0.004 | [4] 0.025 | gefitinib 0.042

AVEN (UniProt Q9NQS1)
inactive: alvocidib -0.047 | Tubastatin A -0.154 | [1] 0.049 | defactinib -0.097 | [2] 0.082 | encorafenib 0.017 | [3] 0.016 | alisertib 0.061 | gefitinib -0.09

ATXN7L3 isoform 2 (UniProt Q14CW9)
inactive: alvocidib 0.049 | Tubastatin A 0.074 | [1] 0.08 | [2] 0.011 | alisertib 0.201 | [4] 0.248 | gefitinib -0.135

ASRGL1 (UniProt Q7L266)
inactive: alvocidib -0.025 | Tubastatin A 0.039 | [1] -0.01 | defactinib -0.011 | [2] 0.053 | encorafenib -0.013 | [3] -0.04 | alisertib -0.004 | [4] 0.009 | gefitinib -0.051

ATF1 (UniProt P18846)
inactive: alvocidib -0.063 | Tubastatin A 0.035 | [1] -0.028 | [2] -0.006 | encorafenib 0.161 | [3] -0.037 | alisertib -0.034 | [4] 0.024 | gefitinib 0

ATAD3B (UniProt Q5T9A4)
inactive: alvocidib 0.124 | Tubastatin A 0.047 | [1] -0.029 | defactinib 0.046 | [2] 0.039 | encorafenib 0.016 | [3] -0.128 | alisertib 0.006 | [4] -0.008 | gefitinib -0.001

ATF3 (UniProt P18847)
inactive: alvocidib -0.128 | Tubastatin A 0.025 | [1] 0.082 | defactinib -0.095 | [2] 0.098 | encorafenib 0.037 | [3] 0.111 | alisertib -0.15 | gefitinib 0.117

ASXL1 (UniProt Q8IXJ9)
inactive: alvocidib 0.044 | Tubastatin A -0.043 | [1] 0.047 | [2] 0.078 | encorafenib -0.005 | [3] -0.041 | alisertib 0.092 | [4] -0.03 | gefitinib -0.025

ATP6V0C (UniProt P27449)
inactive: alvocidib 0.003 | Tubastatin A -0.05 | [1] -0.048 | defactinib 0.223 | [2] -0.002 | encorafenib 0.093 | [3] -0.127 | [4] 0.001

ASCC3 (UniProt Q8N3C0)
inactive: alvocidib -0.023 | Tubastatin A -0.064 | [1] 0.037 | defactinib -0.026 | [2] 0.07 | encorafenib 0.02 | [3] 0.126 | alisertib -0.004 | [4] 0.029 | gefitinib -0.016

ATP1B1 (UniProt P05026)
inactive: alvocidib 0.03 | Tubastatin A -0.041 | [1] -0.044 | [2] -0.036 | alisertib 0.033 | [4] 0.06 | gefitinib -0.019

ATP11C, A0A067XG54
inactive: alvocidib -0.058 | Tubastatin A -0.055 | [1] -0.128 | [2] -0.105 | [4] -0.02

ATG10 (UniProt Q9H0Y0)
inactive: alvocidib 0.106 | Tubastatin A -0.035 | [1] 0.01 | defactinib -0.037 | [2] -0.022 | encorafenib 0.024 | [3] 0.025 | alisertib 0.032 | gefitinib 0.04

ATRN (UniProt O75882)
inactive: alvocidib -0.032 | Tubastatin A -0.17 | [1] 0.015 | defactinib 0.076 | [2] -0.035 | encorafenib 0.099 | [3] -0.075 | [4] 0.005

ATXN7L3B (UniProt Q96GX2)
inactive: alvocidib 0.029 | Tubastatin A 0.011 | [1] -0.048 | defactinib -0.016 | [2] 0 | encorafenib -0.136 | [3] 0.131 | alisertib 0.006 | gefitinib 0

ATG5 (UniProt Q9H1Y0)
inactive: alvocidib -0.013 | Tubastatin A -0.032 | [1] 0 | defactinib 0.003 | [2] 0.004 | encorafenib 0.011 | [3] 0.063 | alisertib 0.021 | [4] 0.001 | gefitinib 0.008

ATXN2 (UniProt F8WB05)
inactive: alvocidib -0.051 | Tubastatin A 0.23 | [1] 0.101 | defactinib -0.063 | [2] -0.03 | encorafenib -0.033 | [3] 0.023 | [4] 0.033

ATP6V1D (UniProt Q9Y5K8)
inactive: alvocidib 0.017 | Tubastatin A -0.011 | [1] 0.02 | defactinib 0.014 | [2] 0.003 | encorafenib -0.005 | [3] -0.016 | alisertib -0.01 | [4] 0.002 | gefitinib 0.022

B3GNT5 (UniProt Q9BYG0)
inactive: alvocidib 0.079 | Tubastatin A -0.013 | [1] -0.101 | defactinib 0.227 | [2] -0.114 | encorafenib -0.019 | [3] 0.006 | [4] 0.104

ATL2 (UniProt Q8NHH9)
inactive: alvocidib -0.063 | Tubastatin A 0.099 | [1] 0.04 | defactinib 0.036 | [2] -0.065 | encorafenib 0.043 | [3] 0.034 | alisertib 0.032 | [4] 0.146 | gefitinib 0.057
